## Results from one PubChem assay

Data taken from PubChem BioAssay AID1159506, deposited by NCATS (2015).

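Genome-wide siRNA knockdown in TC32 Ewing sarcoma cells, comparing luciferase light from an NR0B1-promoter reporter with a CMV-promoter reporter 48 hours after transfection.
Each siRNA was applied at 20 nM.
A z-score of the log NR0B1-over-CMV signal, less the median of siRNAs with the same seed; more negative means a stronger specific loss of the NR0B1 reporter.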

The strongest results of the screen are mostly left out here.
Sequences are the guide (antisense) strand, without overhang.

| strand | gene | seed-corrected z-score |
|---|---|---|
| `UUAGGUGAGAAUGACUUGG` | ATP6V1G2 | 0.07438 |
| `AAACGAAUAGCAAAGUCUG` | ABCA6 | -0.5326 |
| `AAGCUCAAUACCAUCAUGC` | MS4A6A | 0.2536 |
| `UGUAGGCACAGGUUACAGG` | DPEP2 | 0.6196 |
| `UAGUUUGUCGCCGAUACGG` | MPP7 | -0.2491 |
| `AACCAUACAACUUCCGGCG` | FLT1 | -0.4745 |
| `UCCAUGAUCAGCUUGCUGG` | MYOZ1 | -0.104 |
| `UUAGUUGAAAUCGAUGUCC` | MTMR2 | 0.1412 |
| `UUCAUCCCUAGUGUUCACG` | ANKRD49 | 0.02851 |
| `UGUCUUCACGAAGAUUUGC` | UBC | -0.2433 |
| `UGUCGUUCAGGUCAUACUC` | APLF | -0.4165 |
| `UUAAGCUUGAUAUCCACUG` | OPA1 | 0.05385 |
| `UUAGGUACUAGGGUCUGGA` | CASP5 | 0.2369 |
| `UCAGUAAUACUUAAGCAGC` | AMN1 | 0.6798 |
| `AAGCUGGUGACGAAGCACC` | MSLNL | -0.1388 |
| `AAAGUUUGCUAUGAUCUCC` | CLDN20 | -0.6849 |
| `UCUUUUCGGACCACUGUUG` | SNX1 | 0.09004 |
| `AAAGUCACUGCCGCAAUAG` | ADAMTSL5 | 0.9589 |
| `GAUCUUCCCAUUGAUGGCA` | C16orf13 | 0.2585 |
| `ACACUCACCAAAGUAGUCC` | AP3M1 | -0.5181 |
| `AAUGGUCUGACUUAGAUUU` | JPH4 | -1.669 |
| `UCUGUUAUAAUACAUGUGC` | APOPT1 | 0.4911 |
| `UUAAGGGAUGAAUUGAGCC` | ZNF607 | 0.3577 |
| `AUAUUUCUGGUUUAAGUCC` | BLOC1S2 | 1.274 |
| `AUACGCAGUAGUUGAGUGU` | TSPO | 1.009 |
| `UGUAAAUCAAACUUGAUGG` | CCNK | -0.142 |
| `UAUCCUCGAAGCUAGAGCC` | YIPF3 | -1.107 |
| `UAGUAUAUACAACCCAUCG` | NDUFA12 | 0.8832 |
| `UCUUCUUCACUUGUUGCUC` | TBPL1 | 0.9111 |
| `AAACUGUUAUCAUCUGAGG` | POMGNT1 | -1.041 |
| `UUCUCGAUCUCAAUGCUCU` | RAB11FIP3 | -0.4505 |
| `UCUUUAUGAAGUCAUCAUC` | CCDC93 | 0.4015 |
| `UUGUCAUCCAGAAUCGCAC` | MECOM | -0.04764 |
| `UCGGUAUUGACGCACAUGC` | GCK | -0.1208 |
| `AAAAUUGGAGCCGUUGUUC` | AHSG | 1.536 |
| `UUUUAAUCUUGUCCAAAGC` | LMOD2 | 0.03858 |
| `AUUCGCAUCAAUGUCAGGG` | ZNF687 | 0.4647 |
| `AAGCAGAUAAUAGAUGUCU` | FOXD2 | 0.0233 |
| `AUUCUUUACAUCUGAAAUG` | ZNF138 | -0.09292 |
| `UCAGUAAUAAGUGAAGUUC` | PCDHA1 | 0.2305 |
| `UCACCGAUCACUUCAUCUG` | CIITA | -0.2413 |
| `UUAGGAUCCACUAUGACAG` | NUDCD1 | 0.0139 |
| `UCCUAGACUUGCAACAUUC` | UQCR11 | -0.2349 |
| `AAACGUACUGAGGAGGUGC` | LAPTM4A | -0.3433 |
| `UUUCGGCAAGGCUUCGACG` | LMX1B | -0.2045 |
| `UUCUAAUCAAUUCUAGUGG` | SLC25A40 | 0.351 |
| `UAUGAGCAAGCCUUUAUCU` | TBRG4 | 0.4889 |
| `UGUCUUAUAAACUUGAUGC` | TXNRD1 | -0.3248 |
| `UCAUUAACAAGUUUAGUUC` | TRIM36 | -0.2074 |
| `UUCAGAGUAGGAAUGAGGA` | MBD3L2 | 0.2076 |
| `ACUCGUACAGGAAGCCACG` | SBK2 | -0.6872 |
| `UUCCCAUCCUGAAGUAUGC` | MTERF4 | -0.3101 |
| `UGUUCUCCCACUUAUAUUC` | CD2BP2 | 0.2157 |
| `AUGCGUUCCAUCAUCAUAC` | TBC1D30 | 0.6202 |
| `UCAGGUCAAAGGAACACUG` | ZNF384 | 1.406 |
| `UUUCGUGUCAAAUAAGGAU` | HOXC8 | 0.6089 |
| `UCAUCGUUUUCUUUAACCG` | FAHD1 | -0.7618 |
| `AAAGGGACAAGUAGAGGCA` | LIF | -1.565 |
| `UUCAGCACCACCUAGACAC` | OR2AE1 | 1.205 |
| `UUUGAACUAAACUCGUGGG` | PIAS2 | -0.3638 |
| `UUUCUUUCCACUCCCAUAU` | COL4A4 | -0.5318 |
| `UUCAUACGAAGAUCCGUGG` | PFN1P3 | -0.6163 |
| `UCGUUAACAAGUGCUACUC` | ZC3HAV1 | -0.2248 |
| `UCGUCUCUCACGCAAACCU` | HS6ST1P1 | 0.9323 |
| `ACAGUCUUGGGAAAGCACC` | MAP3K10 | 0.5096 |
| `UGGACAAUAAUUCUCGAAG` | SIKE1 | 0.5042 |
| `UUGGGCUUCAUGUAUUUCU` | RNF113A | 0.05996 |
| `UCACAUAUGAUCUUCUUGC` | OC90 | 0.00599 |

The last 7 entries again:

For UUCAUACGAAGAUCCGUGG against PFN1P3 the result was seed-corrected z-score -0.6163.
For UCGUUAACAAGUGCUACUC against ZC3HAV1 the result was seed-corrected z-score -0.2248.
For UCGUCUCUCACGCAAACCU against HS6ST1P1 the result was seed-corrected z-score 0.9323.
For ACAGUCUUGGGAAAGCACC against MAP3K10 the result was seed-corrected z-score 0.5096.
For UGGACAAUAAUUCUCGAAG against SIKE1 the result was seed-corrected z-score 0.5042.
For UUGGGCUUCAUGUAUUUCU against RNF113A the result was seed-corrected z-score 0.05996.
For UCACAUAUGAUCUUCUUGC against OC90 the result was seed-corrected z-score 0.00599.